According to PMC3012718:
These are yes or no findings as the source states them, for the method shown. In cells and extracts the contact can be indirect. Some results given as binding are weak or reduced against the parent protein; the word gives no strength.

The chains behind the UniProt entries cited, without tags or fusion partners.
UniProt O14893: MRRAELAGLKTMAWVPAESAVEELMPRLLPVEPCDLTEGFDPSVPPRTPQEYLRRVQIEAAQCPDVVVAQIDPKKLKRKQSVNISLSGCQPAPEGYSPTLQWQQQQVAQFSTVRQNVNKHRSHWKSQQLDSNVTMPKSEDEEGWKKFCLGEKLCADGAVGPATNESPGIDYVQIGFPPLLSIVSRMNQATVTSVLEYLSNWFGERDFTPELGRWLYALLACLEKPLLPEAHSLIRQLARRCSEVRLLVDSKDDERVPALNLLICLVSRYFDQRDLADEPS
UniProt Q16637: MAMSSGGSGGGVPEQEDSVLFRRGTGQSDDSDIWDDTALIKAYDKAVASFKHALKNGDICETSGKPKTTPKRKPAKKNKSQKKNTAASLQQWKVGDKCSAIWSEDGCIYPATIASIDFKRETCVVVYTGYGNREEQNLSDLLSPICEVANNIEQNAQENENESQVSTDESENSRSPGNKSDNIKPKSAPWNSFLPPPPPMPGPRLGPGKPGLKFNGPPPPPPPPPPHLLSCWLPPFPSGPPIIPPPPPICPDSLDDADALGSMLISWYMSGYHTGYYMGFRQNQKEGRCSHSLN

Molecular target: GST-Gemin2 (human Gemin2, hGemin2) (human) (UniProt O14893)
Assay: pull-down; HIS6-SMN and GST-Gemin2 co-expressed in E. coli; clarified lysate (PBS, 1% Triton X-100) mixed with Glutathione Sepharose 4B beads at 4°C for 3 hr; washed with PBS + 1% Triton X-100, then PBS + 0.1% Triton X-100; bands seen by Coomassie stain and Western blot

## HIS6-SMN (human survival motor neuron protein, hSMN1) (from UniProt Q16637 1-294)
  binding: binds
